# Source: patent US4940713A, “Substituted glutamic acids” (Burroughs Wellcome Co., priority 1988, dated 1990)
# Some entries share one result that the patent states for a list of compounds.
# Tested on: Spiroplasma citri
# Test: Activity Against Spiroplasma citri, Sensitivity Test
# Assay type: cell-based
# Details: in words
# Procedure: Frozen broth cultures are diluted to a predetermined titre of 100 color changing units for the test. Organisms are grown in Difco PPLO broth base with added serum, glucose, phenol red, ampicillin, thallium acetate and yeast extract. Incubation is at 32° C. Incubation with varying levels of the test compound in the above medium are performed in well plates and an amount of Spiroplasma citri cells is added that will produce a color change by a fixed time of growth. The lowest concentration of compound that fails to produce a color change or gives a two day delay in color change indicates minimum inhibitory concentration.
row,SMILES,activity against Spiroplasma citri
1,"Nc1nc(N)c(CCCNc2ccc(C(=O)N[C@@H](CCC(=O)O)C(=O)O)cc2)c(=O)[nH]1 [Example 1, N-[4-[3-(2,4-diamino-1,6-dihydro-6-oxo-5-pyrimidinyl)propylamino]benzoyl]-L-glutamic acid]","active against the mycoplasma, Spiroplasma citri"
2,"CN(CCCc1c(N)nc(N)[nH]c1=O)c1ccc(C(=O)N[C@@H](CCC(=O)O)C(=O)O)cc1 [Example 2, N-[4-[3-(2,4-diamino-1,6-dihydro-6-oxo-5-pyrimidinyl)-N-methylpropylamino]benzoyl]-L-glutamic acid]","active against the mycoplasma, Spiroplasma citri"
3,"Nc1nc(N)c(CCCN(C=O)c2ccc(C(=O)N[C@@H](CCC(=O)O)C(=O)O)cc2)c(=O)[nH]1 [Example 3, N-[4-[3-(2,4-Diamino-1,6-dihydro-6-oxo-5-pyrimidinyl)-N-formylpropylamino]benzoyl]-L-glutamic acid]","active against the mycoplasma, Spiroplasma citri"
